Data published in article PMC5833723.
Results are given in words; binding and its absence hold for the method and conditions named. In cells and extracts the contact can be indirect. Some results given as binding are weak or reduced against the parent protein; the word gives no strength. Tags and fused reporters may be left off the sequences shown.

Chains of the proteins cited; added tags and fusions are not shown. Lines headed by an entry give the natural chain unless they say otherwise; changes in a name come on top.
UniProt P31260: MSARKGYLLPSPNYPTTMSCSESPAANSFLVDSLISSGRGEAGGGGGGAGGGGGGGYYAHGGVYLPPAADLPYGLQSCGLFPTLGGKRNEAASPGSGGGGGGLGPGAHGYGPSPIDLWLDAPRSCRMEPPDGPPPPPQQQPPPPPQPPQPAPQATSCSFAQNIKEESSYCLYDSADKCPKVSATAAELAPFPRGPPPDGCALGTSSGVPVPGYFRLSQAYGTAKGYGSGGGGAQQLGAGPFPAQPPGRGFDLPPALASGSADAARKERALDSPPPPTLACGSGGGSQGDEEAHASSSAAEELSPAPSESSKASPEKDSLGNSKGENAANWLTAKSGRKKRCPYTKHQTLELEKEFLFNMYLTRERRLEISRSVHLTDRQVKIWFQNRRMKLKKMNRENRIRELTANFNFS

Molecular target: T1, Flag-tagged CAPN7 (human) (UniProt Q9Y6W3)
T1 sequence: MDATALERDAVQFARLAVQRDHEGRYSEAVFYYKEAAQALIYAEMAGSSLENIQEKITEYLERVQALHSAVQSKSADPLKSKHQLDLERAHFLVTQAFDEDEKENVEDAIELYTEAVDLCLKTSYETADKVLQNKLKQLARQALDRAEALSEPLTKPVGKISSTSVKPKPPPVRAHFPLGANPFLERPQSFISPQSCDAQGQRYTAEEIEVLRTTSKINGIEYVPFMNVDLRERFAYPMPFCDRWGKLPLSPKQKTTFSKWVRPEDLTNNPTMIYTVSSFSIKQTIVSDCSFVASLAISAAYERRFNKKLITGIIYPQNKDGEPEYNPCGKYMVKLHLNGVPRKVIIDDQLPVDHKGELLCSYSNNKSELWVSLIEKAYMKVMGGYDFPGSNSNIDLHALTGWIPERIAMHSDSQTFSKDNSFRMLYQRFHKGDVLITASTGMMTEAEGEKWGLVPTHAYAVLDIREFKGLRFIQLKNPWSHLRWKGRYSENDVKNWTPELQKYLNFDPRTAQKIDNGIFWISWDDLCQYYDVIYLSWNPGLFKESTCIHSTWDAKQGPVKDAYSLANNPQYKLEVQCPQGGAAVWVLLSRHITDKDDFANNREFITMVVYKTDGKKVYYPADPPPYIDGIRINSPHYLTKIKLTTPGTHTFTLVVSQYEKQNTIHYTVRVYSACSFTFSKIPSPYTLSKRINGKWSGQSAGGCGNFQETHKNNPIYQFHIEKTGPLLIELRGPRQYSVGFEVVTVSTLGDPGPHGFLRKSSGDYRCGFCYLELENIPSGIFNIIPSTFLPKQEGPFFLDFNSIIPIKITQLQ
Experiment: co-IP; HEK293T cells transiently co-transfected, lysed after 48 h in 50 mM Tris-HCl pH 7.6, 150 mM NaCl, 1.0% NP-40; precipitation with Myc-conjugated antibody or anti-Flag M2 beads at 4 °C overnight; immunoblot

| Substance | binding |
| --- | --- |
| Myc-HOXA10 C terminus (311–410 AA) (from UniProt P31260 311-410) (domain or fragment) | binds |
| Myc-HOXA10 (from UniProt P31260 1-410) | binds |
